# Data as given in patent US11371055B2, “Herbicide resistance genes” (CORTEVA AGRISCIENCE LLC, priority 2005, dated 2022).
# Some entries share one result that the patent states for a list of compounds. At least one structure is not confirmed: it was looked up by name or label, or the drawing left a doubt.
# Molecular target: T1, AAD-12 (v2) (Delftia acidovorans, UniProt P83309)
# T1 construct: made in house; host or cells: Pseudomonas fluorescens strain MB324 (construct pDAB739)
# Assay: Colorimetric phenol detection assay of AAD-12 activity
# Assay type: biochemical
# Experimental: Enzyme activity was measured by colorimetric detection of the product phenol using a protocol modified from that of Fukumori and Hausinger (1993) (J. Biol. Chem. 268: 24311-24317) to enable deployment in a 96-well microplate format. The colorimetric assay has been described for use in measuring the activity of dioxygenases cleaving 2,4-D and dichlorprop to release the product 2,4-dichlorophenol. The color yield from several phenols was compared to that of 2,4-dichlorophenol using the detection method previously described to ascertain which phenol products could be readily detected. […] Pyridinols derived from fluroxypyr and triclopyr produced no significant color. The color yield of 2,4-dichlorophenol was linear and proportional to the concentration of phenol in the assay up to ˜500 μM.
# Assays were initiated by addition of the aryloxyalkanoate substrate, enzyme or α-ketoglutarate at time zero. […] Then 10 μl 0.8% potassium ferricyanide was added and after 5 or 10 min, the absorbance at 510 nm was recorded in a spectrophotometric microplate reader. […]
# The results are shown in FIG. 3, which illustrates activity of AAD-12 (v2) on 2,4-D and enantiomers of dichlorprop. […] After 5 minutes, the reaction was quenched, and the absorbance at 510 nm determined after addition of colorimetric detection reagents. […]
row,SMILES,concentrations at which substrate inhibition occurred [mM]
1,"O=C(O)COc1ccc(Cl)cc1Cl [2,4-D, 2,4-dichlorophenoxyacetic acid]",> 1
2,"CC(Oc1ccc(Cl)cc1Cl)C(=O)O (racemic) [(R,S)-dichlorprop]",> 1
